Source: patent publication US8252814B2, “Agents and crystals for improving excretory potency of urinary bladder” (priority 1998, dated 2012)
At least one compound was matched to its structure with a doubt left.

Experiments:
[1] = Hygroscopicity test, Experimental Example 6; assay type: physicochemical; conditions: for Percent change in weight (%): vessel opened
[2] = Stability test, Experimental Example 7; assay type: physicochemical
Method: A number of specimens of the crystals obtained in Example 1 were stored under the following conditions and then their changes in the property and the remaining percent were determined.
Storing conditions: 1. 60° C. for 3 months (in a brown glass bottle, closed); 2. 45° C., the relative humidity of 75% for 3 months (in a brown glass bottle, closed); 3. 40° C., the to relative humidity of 75% for 3 months (in a brown glass bottle, opened); 4. irradiated with a xenon lamp (60000 lux) for 20 hours (1.2 million lux/hour) (on a Petri dish covered with a polyvinylidene chloride film).

O=C(CCC1CCN(Cc2cccc(F)c2)CC1)c1cc2c3c(c1)CCN3C(=O)CC2 [Example 1, 8-[3-[1-[(3-fluorophenyl)-methyl]-4-piperidinyl]-1-oxopropyl]-1,2,5,6-tetrahydro-4H-pyrrolo-[3,2,1-ij]quinolin-4-one]
Percent change in weight (%) ([1]; 25° C./75% RH, 4 days of storage): +0.11%
Percent change in weight (%) ([1]; 25° C./75% RH, 7 days of storage): +0.11%
Percent change in weight (%) ([1]; 25° C./75% RH, 14 days of storage): +0.18%
Percent change in weight (%) ([1]; 25° C./93% RH, 4 days of storage): +0.06%
Percent change in weight (%) ([1]; 25° C./93% RH, 7 days of storage): +0.09%
Percent change in weight (%) ([1]; 25° C./93% RH, 14 days of storage): +0.15%
hygroscopic property (in words) ([1]; 14 days at 75% and 93% RH): no changes were observed in the weight
X-ray powder diffraction images before and after storage (crystal form persistence) ([1]; storage of the hygroscopicity test): remained almost the same before and after their storage
X-ray powder diffraction images before and after storage (crystal form persistence) ([2]; storage of the stability test): remained almost the same before and after their storage
Property ([2]; storing condition 1 (60° C./3 months), brown glass bottle, closed): white crystals
Property ([2]; storing condition 2 (40° C./75% RH, closed), 3 months, brown glass bottle): white crystals
Property ([2]; storing condition 3 (40° C./75% RH, open), 3 months, brown glass bottle): white crystals
Property ([2]; storing condition 4 (Xenon lamp/20 hs.), 60000 lux): white crystals
